{"sequences": {"note": "Chains of the proteins cited; added tags and fusions are not shown. Residues count along the entry.", "UniProt P68871, 2-147 limits assumed": "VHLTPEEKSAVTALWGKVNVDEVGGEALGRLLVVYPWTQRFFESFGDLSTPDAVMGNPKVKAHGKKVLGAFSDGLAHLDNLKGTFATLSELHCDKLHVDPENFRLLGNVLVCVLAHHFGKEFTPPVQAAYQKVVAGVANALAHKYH"}, "source": "patent US20260240810A1", "about": "“COMPOSITIONS AND METHODS FOR REDUCING ADVERSE SIDE EFFECTS IN CANCER TREATMENT” (priority 2022, published 2026)", "key": {"[1]": {"biological_target": "T1, cysteine-93 locus of the hemoglobin β chain (Homo sapiens, UniProt P68871)", "T1 construct": "purchased", "assay": "Binding to βCys93 of commercial human hemoglobin (trypsin digest, LC/MS/MS)", "settings": "0 mM, 0.53 mM, 5.5 mM RRx-001 in buffer"}, "Nrf2 [2]": {"tested_on": "Nrf2", "assay": "Nrf2 activation in squamous cell cancer VII cells in vitro", "assay_type": "cell-based", "settings": "RRx-001 2 μM or 5 M"}, "Nrf2 [3]": {"tested_on": "Nrf2", "assay": "Nrf2 activation in mice bearing SCC VII xenografts", "assay_type": "in vivo"}, "[4]": {"tested_on": "bone marrow cellularity after sublethal total body irradiation", "assay": "Effects on bone marrow after sublethal total body irradiation", "assay_type": "in vivo, mice"}, "[5]": {"tested_on": "intestinal stem cell (crypt cell)", "assay": "Intestinal stem cell (crypt cell) survival after total body irradiation", "assay_type": "in vivo, mice", "settings": "total body irradiation 10 to 15 Gy, 10 mg/kg intraperitoneally, vs radiation alone"}, "[6]": {"tested_on": "oral mucositis induced by acute radiation in hamsters", "assay": "Oral mucositis induced by acute radiation in hamsters", "assay_type": "in vivo, Golden Hamsters", "settings": "single dose of radiation", "protocol": "Referring to FIG. 11, FIG. 11 is a table 1100 showing a study design for an assessment of RRx-001 for the treatment of oral mucositis induced by acute radiation in hamsters. Mucositis was induced in 56 male Golden Hamsters via an acute radiation dose of 40 Gy directed to their left buccal cheek pouch. RRX-001 was administered with a vehicle comprising a 1:2 vol; vol ratio of N,N-Dimethylacetamide/40% Polyethylene Glycol (DMA:PBG). […] Otherwise, dosing was administered according to the “Dose Schedule” column of the table 1100. The study lasted 28 days. Mucositis was evaluated in hamsters from day 6 through day 28.\nStarting at day 6 of the study and continuing every second day thereafter (day 8, 10, 12, 14, 16, 18, 20, 22, 24, 26, and 28), the hamsters were photographed and evaluated for mucositis scoring. The hamsters were anesthetized and the left pouch everted to evaluate a score each hamster based on a severity of mucositis. […]\nFIG. 15B is a bar graph 1550 showing a percent of cumulative animal days with mucositis scores greater than or equal to 3 for days 6-28. Statistical significance of the observed differences was calculated using chi-squared analysis.\nFIG. 16B is a bar graph 1650 showing a percent of cumulative animal days with mucositis scores greater than or equal to 3 for days 6-28. Statistical significance of the observed differences was calculated using chi-squared analysis. […]"}, "[7]": {"tested_on": "severe oral mucositis in patients receiving head and neck chemoradiotherapy", "assay": "PREVLAR Phase 2a trial: oral mucositis in patients receiving cisplatin + IMRT", "assay_type": "in vivo, human", "protocol": "Referring to FIG. 1, FIG. 1 is a table 100 showing a trial in which RRx-001 was tested in various groups of patients that were being treated for cancer with a combination of chemotherapy and IMRT. The various groups were divided into “Arms” based on a treatment: • Arm 1. pretreatment with 4 mg RRx-001 2 times per week for 2 weeks followed by 40 mg/m^2 each week or 100 mg/m^2 once every 3 weeks cisplatin+IMRT. • Arm 2. pretreatment with 4 mg RRx-001 2 times per week for 2 weeks followed by cotreatment with 4 mg RRx-001 2 times once on week 2 and once on week 5+40 mg/m^2 each week or 100 mg/m^2 once every 3 weeks cisplatin+IMRT. • Arm 3. pretreatment with 4 mg RRx-001 2 times per week for 2 weeks followed by cotreatment with 4 mg RRx-001 […]+40 mg/m^2 each week or 100 mg/m^2 once every 3 weeks cisplatin+IMRT. • Arm 4. standard of care 40 mg/m^2 each week or 100 mg/m^2 once every 3 weeks cisplatin+IMRT without RRx-001.\nAccordingly, patients in Arm 1 of the study were administered a pretreatment of RRx-001 over a 2-week period. No RRx-001 was administered to the patients following the pretreatment period. Following the 2-week pretreatment period, the therapeutic agent comprising cisplatin and IMRT was administered to the patients over a 6-week period.\nPatients in Arm 2 of the study were likewise administered a pretreatment of RRx-001 over a 2-week period. But RRx-001 was further administered at a low dose concurrently with cisplatin and IMRT over the 6-week period following the pretreatment period.\nArm 4 of the study was the control or standard of care (SOC). No RRx-001 was administered to the patients in Arm 4 of the study and there was no pretreatment period. All patients received the same amounts of cisplatin and IMRT for Arm 1, Arm2, Arm 3, and Arm 4 of the study. Patients in the study had the option to stop or refuse treatment at any time and not all patients finished the entire treatment.\nExample 2 is a Phase 2a randomized, multi-institutional (n=13, of which 12 enrolled), open-label/unblinded, controlled trial in which patients were centrally randomized into four groups (“Arms”), with approximately 10 patients per Arm (or group) before the start of CRT, stratified by oropharynx versus oral cavity site. See M. Bonomi, et al. (2023) Int. J. Radiat. Oncol. Biol. Phys. 116(3): p. 551-559.\nStudy participants were adults (>18 years) with pathologically diagnosed stage III to IVB locally advanced (nonmetastatic) squamous cell carcinoma of the oral cavity or oropharynx that were scheduled to receive definitive or postoperative daily fractionation IMRT of 2.0 Gy to 2.2 Gy for a total dose of 60 Gy to 72 Gy with concomitant cisplatin given as either weekly (40 mg/m^2) or tri-weekly (100 mg/m^2) infusions. Radiation fields included at least 2 oral sites at risk of OM (e.g., buccal mucosa, floor of mouth, lateral/ventral tongue, or soft palate), which were planned to receive a minimum cumulative dose of 55 Gy. […] Patients received a pretreatment evaluation including complete history, dental assessment, physical examination, complete blood count and complete metabolic profile, hematology and biochemistry profiles, optional laryngoscopy, chest computed tomography (CT) or positron emission tomography (PET)/CT, CT, and a magnetic resonance imaging (MRI) or PET/CT of the tumor site and neck nodes.\nArms 1 to 3 received twice weekly infusions of RRx-001, 4 mg/dose after a premedication dose of dexamethasone (10 mg) for the 2 weeks preceding the start of CRT. […]"}}, "note": "For at least one compound, name, drawing or mass did not settle the structure.", "data": [{"molecule": "O=C(CBr)N1CC([N+](=O)[O-])([N+](=O)[O-])C1", "note": "[RRx-001, 2-bromo-1-(3,3-dinitroazetidin-1-yl) ethan-1-one]", "values": [{"measurement": "RRx-001-related alkylated tryptic peptide at cysteine-93 of hemoglobin β chain", "setting": "[1]", "result": "increased in a dose-dependent manner"}, {"measurement": "Nrf2 level", "setting": "Nrf2 [2]", "result": "increase in Nrf2"}, {"measurement": "cytoplasmic and Nrf2 protein", "setting": "Nrf2 [3]; RRx-001 10 mg/kg", "result": "increase in both cytoplasmic and Nrf2 protein"}, {"measurement": "heme oxygenase-1 and NAD (P) H quinone dehydrogenase 1", "setting": "Nrf2 [3]; following RRx-001 exposure", "result": "upregulated"}, {"measurement": "hematopoietic recovery by Day 14", "setting": "[4]; 7 Gy, single dose pretreatment 24 hours before irradiation, vs control", "result": "accelerated hematopoietic recovery"}, {"measurement": "bone marrow cellularity by Day 7", "setting": "[4]; 7 Gy, single dose pretreatment 24 hours before irradiation, vs vehicle", "result": "increase in cellularity"}, {"measurement": "recovery of bone marrow cellularity and colony-forming units", "setting": "[4]; sublethal total body radiation 7 Gy at 0.6 Gy/min, vs vehicle", "result": "accelerated recovery"}, {"measurement": "intestinal stem cell (crypt cell) survival and regeneration", "setting": "[5]", "result": "enhanced"}, {"measurement": "mucosal injury in hamster oral mucositis models", "setting": "[6]", "result": "protected against and sped recovery from mucosal injury"}, {"measurement": "mouth and throat soreness (OMDQ)", "setting": "[7]; Arm 1", "result": "fewer visits of “quite a lot or extreme soreness”"}, {"measurement": "opioid use", "setting": "[7]; Arm 1 (like other treated patients) vs control patients", "result": "started de novo opioids later and used opioids for fewer days"}, {"measurement": "incidence of grade 4 OM through 60 Gy", "setting": "[7]; Arm 1: RRx-001 pretreatment + SOC chemoradiation", "result": "zero"}, {"measurement": "time to develop SOM after start of chemotherapy (Kaplan-Meier)", "setting": "[7]; Arms 1, 2, and 3 vs SOC (Arm 4)", "result": "generally took longer to develop SOM"}, {"measurement": "course of SOM compared to the control Arm (GLMER for repeated binary measures)", "setting": "[7]; aggregate RRx-001 effect, p<0.0001", "result": "favorably impacted"}]}]}
